This note sets out measurements from PubChem BioAssay AID248 (DTP/NCI, 2004).

The list shows only some results of the screen, not a fair sample: its compounds were picked by chemical class. Not every dose and run of a compound is shown. T/C gives the treated animals as a percentage of the vehicle group. Some entries give survivors of the animals treated and no T/C: the source holds a T/C of zero for them, seemingly a mark for toxic or unscored doses. Some survivor counts are full or nearly so, which does not show that the dose was tolerated: survival well below the control is almost never listed, so the zero probably covers shortened survival too. Counts of survivors are from the toxicity check (mostly the fifth day) where no day follows; animals may have died later. Schedule codes are those of the source, read here as Q, the interval in days (D) or hours (H), X, the number of doses. Some schedule codes hold Z or #, which are not explained here. For survival time, this PubChem deposit counts one and a half times the control or more as active, and values a quarter to a half above the control carry no call in these data; other NCI protocols may use other cut-offs. Some entries show no survivor count and are marked so; the dose need not have been tolerated. Some T/C values carry the count of animals alive at the toxicity check (mostly the fifth day); where neither a count nor a note follows, no animal had died by that day.

The subject of the assay is L1210 leukemia ip in BDF1 mice, survival T/C. In words: NCI In Vivo Anticancer Drug Screen. Data for tumor model L1210 Leukemia (intraperitoneal) in B6D2F1 (BDF1) mice. Conditions: T/C endpoint: mean survival time, higher T/C = longer survival.

As for `O=P(OCCCl)(N(CCCl)CCCl)N1CC1` (stereo unspecified), the T/C is 97 % of control (dose: 4.0 mg/kg/injection, schedule: Q01DX Z (ip), vehicle: saline); 124 % of control (dose: 8.0 mg/kg/injection, schedule: Q01DX Z (ip), vehicle: saline); 93 % of control (dose: 16.0 mg/kg/injection, schedule: Q01DX Z (ip), vehicle: saline); 100 % of control (dose: 25.0 mg/kg/injection, schedule: Q04DX003 (ip), vehicle: saline); 98 % of control (dose: 50.0 mg/kg/injection, schedule: Q04DX003 (ip), vehicle: saline); 93 % of control (dose: 100.0 mg/kg/injection, schedule: Q04DX003 (ip), vehicle: saline). Further, the survivor count is recorded as 6 of 6 (dose: 32.0 mg/kg/injection, schedule: Q01DX Z (ip), vehicle: saline); 6 of 6 (dose: 62.5 mg/kg/injection, schedule: Q01DX010 (ip), vehicle: saline); 0 of 6 (dose: 64.0 mg/kg/injection, schedule: Q01DX Z (ip), vehicle: saline); 1 of 6 (dose: 125.0 mg/kg/injection, schedule: Q01DX010 (ip), vehicle: saline); 0 of 6 (dose: 250.0 mg/kg/injection, schedule: Q01DX010 (ip), vehicle: saline).
For `CCCCCCCOP(=O)(CC)OCCCCCCC`, the T/C is, setting by setting: (dose: 5.0 mg/kg/injection, schedule: Q01DX001 (ip), vehicle: saline) 103 % of control [survivor count not shown]; (dose: 10.0 mg/kg/injection, schedule: Q01DX001 (ip), vehicle: saline) 94 % of control [survivor count not shown]; (dose: 20.0 mg/kg/injection, schedule: Q01DX001 (ip), vehicle: saline) 96 % of control [survivor count not shown]; (dose: 40.0 mg/kg/injection, schedule: Q01DX001 (ip), vehicle: saline) 105 % of control [survivor count not shown]; (dose: 80.0 mg/kg/injection, schedule: Q01DX001 (ip), vehicle: saline) 94 % of control [survivor count not shown].
As for `O=[N+]([O-])c1ccc(N2CCN(c3ccc([N+](=O)[O-])cc3[N+](=O)[O-])CC2)c([N+](=O)[O-])c1`, the T/C is 104 % of control (dose: 100.0 mg/kg/injection, schedule: Q04DX002 (ip), vehicle: Klucel (hydroxypropylcellulose) (HPC)); 95 % of control [2 of 3 alive] (dose: 200.0 mg/kg/injection, schedule: Q04DX002 (ip), vehicle: Klucel (hydroxypropylcellulose) (HPC)); 86 % of control (dose: 400.0 mg/kg/injection, schedule: Q04DX002 (ip), vehicle: Klucel (hydroxypropylcellulose) (HPC)).
For `C=CS(=O)(=O)C=C`, the survivor count by setting is: (dose: 100.0 mg/kg/injection, schedule: Q04DX003 (ip), vehicle: saline with Tween-80) 0 of 6; (dose: 200.0 mg/kg/injection, schedule: Q04DX003 (ip), vehicle: saline with Tween-80) 0 of 6; (dose: 400.0 mg/kg/injection, schedule: Q04DX003 (ip), vehicle: saline with Tween-80) 0 of 6.
With `CCOP(=O)(NC(=S)Nc1ccccc1NC(=S)NP(=O)(OCC)OCC)OCC`, the survivor count reads like this: (dose: 12.5 mg/kg/injection, schedule: Q01DX009 (ip), vehicle: saline with Tween-80) 1 of 3; (dose: 25.0 mg/kg/injection, schedule: Q01DX009 (ip), vehicle: saline with Tween-80) 0 of 3; (dose: 50.0 mg/kg/injection, schedule: Q01DX009 (ip), vehicle: saline with Tween-80) 0 of 3; (dose: 100.0 mg/kg/injection, schedule: Q01DX009 (ip), vehicle: saline) 1 of 3; (dose: 200.0 mg/kg/injection, schedule: Q01DX009 (ip), vehicle: saline) 0 of 3. The T/C (dose: 50.0 mg/kg/injection, schedule: Q01DX009 (ip), vehicle: saline) was 91 % of control.
Turning to `Cc1nn(-c2ccc([N+](=O)[O-])cc2[N+](=O)[O-])nc1[N+](=O)[O-]`, the T/C was 96 % of control (dose: 75.0 mg/kg/injection, schedule: Q01DX001 (ip), vehicle: other); 107 % of control (dose: 150.0 mg/kg/injection, schedule: Q01DX001 (ip), vehicle: other); 113 % of control (dose: 300.0 mg/kg/injection, schedule: Q01DX001 (ip), vehicle: other).
